PubChem BioAssay AID504784 – Drosophila RNAi Screening Center – 2011

Screen: 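Search for regulators of lipid droplet storage in oleate-fed fly cells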 (primary screen)
Cells: Drosophila Kc167 embryonic cells
Knock-down reagent: long dsRNA against Drosophila genes, about 250 ng dsRNA per well
Time to read-out: 4 days
Challenge: cells fed 400 µM oleic acid bound to BSA
Measurement: 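Cells imaged and segmented; ratio of lipid droplet area to nuclear area, log-transformed, then normalised as a B-score over the screen; higher means more stored lipid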
Direction: droplet/nuclear area B-score: higher = more stored lipid (overstorage)
The deposit covers about 17,000 reagents; this is an unselected part of those with a known target gene and a result. 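Each column is one replicate's B-score; the combined score over replicates was not deposited, so single values may mislead.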 A plus sign joins genes that one reagent is predicted to hit. Not all columns of the deposit are shown.

With l(1)G0320 [DRSC18255], what was measured?
droplet/nuclear area B-score, replicate 1: -0.0315

For Ccp84Aa [DRSC12586], what does the deposit list?
droplet/nuclear area B-score, replicate 1: -1.11

Which result is listed for Obp57c + Obp57b [DRSC21914]?
droplet/nuclear area B-score, replicate 1: -1.12

How did the screen score CG14050 [DRSC18594]?
droplet/nuclear area B-score, replicate 1: -0.0179

With boi [DRSC18425], how do the results read?
droplet/nuclear area B-score, replicate 1: -0.495

For boi [DRSC18598], what does the deposit list?
droplet/nuclear area B-score, replicate 1: 0.794

How did the screen score CG9590 [DRSC16506]?
droplet/nuclear area B-score, replicate 1: 1.82

What did the screen give for CG12133 [DRSC06108]?
droplet/nuclear area B-score, replicate 1: 0.731

With capt [DRSC00676], what was measured?
droplet/nuclear area B-score, replicate 1: -0.398

With capt [DRSC00806], what does the deposit list?
droplet/nuclear area B-score, replicate 1: -0.0375

With HDAC3 [DRSC12352], what was measured?
droplet/nuclear area B-score, replicate 1: 1.95

Which result is listed for CycG [DRSC14324]?
droplet/nuclear area B-score, replicate 1: 1.51

For CycG [DRSC23345], how do the results read?
droplet/nuclear area B-score, replicate 1: -2.24

With Rbp1 [DRSC16817], how do the results read?
droplet/nuclear area B-score, replicate 1: 1.54

With dnr1 [DRSC03948], what was measured?
droplet/nuclear area B-score, replicate 1: -0.249

For dnr1 [DRSC04122], what was measured?
droplet/nuclear area B-score, replicate 1: 1.2

How did the screen score escl [DRSC02828]?
droplet/nuclear area B-score, replicate 1: -1.97

For Dtg [DRSC15998], how do the results read?
droplet/nuclear area B-score, replicate 1: -4.54

For qkr58E-1 [DRSC04709], how do the results read?
droplet/nuclear area B-score, replicate 1: 0.685

With Atf3 [DRSC17225], what was measured?
droplet/nuclear area B-score, replicate 1: 2.9

What did the screen give for Atf3 [DRSC22996]?
droplet/nuclear area B-score, replicate 1: 0.0672

A portion of the results above, as a working copy:
CG12133 [DRSC06108] | droplet/nuclear area B-score, replicate 1: 0.731
capt [DRSC00676] | droplet/nuclear area B-score, replicate 1: -0.398
capt [DRSC00806] | droplet/nuclear area B-score, replicate 1: -0.0375
HDAC3 [DRSC12352] | droplet/nuclear area B-score, replicate 1: 1.95

The list goes on:
With CG33262 [DRSC22893], what does the deposit list?
droplet/nuclear area B-score, replicate 1: 0.528

What is on record for CG32642 [DRSC18959]?
droplet/nuclear area B-score, replicate 1: 1.2

For FucTD [DRSC08634], what was measured?
droplet/nuclear area B-score, replicate 1: 0.985

For Tnpo-SR [DRSC00546], what was measured?
droplet/nuclear area B-score, replicate 1: -2.42

For CG11113 [DRSC06039], what was measured?
droplet/nuclear area B-score, replicate 1: -0.835

What did the screen give for Vhl [DRSC07716]?
droplet/nuclear area B-score, replicate 1: 2.61

For CG10616 [DRSC09750], how do the results read?
droplet/nuclear area B-score, replicate 1: 0.508

How did the screen score Jhbp11 [DRSC15183]?
droplet/nuclear area B-score, replicate 1: -2.1

What is on record for put [DRSC17039]?
droplet/nuclear area B-score, replicate 1: 0.976

Which result is listed for Usp10 [DRSC08282]?
droplet/nuclear area B-score, replicate 1: -1.13

What did the screen give for Usp10 [DRSC08373]?
droplet/nuclear area B-score, replicate 1: 0.678

How did the screen score CG14442 [DRSC17935]?
droplet/nuclear area B-score, replicate 1: 4.13

What did the screen give for CG31128 [DRSC13675]?
droplet/nuclear area B-score, replicate 1: -0.0338

Which result is listed for botv [DRSC05949]?
droplet/nuclear area B-score, replicate 1: -0.413

Which result is listed for CG13937 [DRSC08406]?
droplet/nuclear area B-score, replicate 1: -0.664

For CG34309 [DRSC14838], what was measured?
droplet/nuclear area B-score, replicate 1: -0.319

For CG15296 [DRSC17983], what was measured?
droplet/nuclear area B-score, replicate 1: 0.356

What did the screen give for Ugt303B2 [DRSC14198]?
droplet/nuclear area B-score, replicate 1: -0.299

For Ugt303B2 [DRSC22864], how do the results read?
droplet/nuclear area B-score, replicate 1: 1.36
